Laboratory results taken from PubChem BioAssay AID624297 (National Center for Advancing Translational Sciences (NCATS), 2012).
Among all 340,000 compounds or so, about 6,200 (1.8%) were called active. This list was built around the results that the source calls inconclusive (neither active nor inactive); the mix of calls is not that of the screen. Calls come from the whole dose curve; as a rule, active = well fitted activation curve with a large enough effect; inconclusive = small, poorly fitted or top-dose-only effect; inactive = no such curve, though single readings can be large or run the other way. Where the call is inconclusive, the potency comes from a doubtful curve fit.
Potency is the fitted concentration of half-maximal effect.

Assay: A quantitative high throughput screen for small molecules that induce DNA re-replication in SW480 colon adenocarcinoma cells. Note: nearly all actives have a fitted effect of over 55% in size.
Conditions: Hoechst DNA content imaging, 48 h; series mostly up to 46.1 µM
In short: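 Readout is total intensity of Hoechst-stained nuclei, excited at 405 nm and collected at 500-530 nm. Compound treatment lasted 48 hr at 37 C in 5% CO2 before staining.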
With `CC1CCN(CCOCCOc2ccc(Br)cc2Cl)CC1` the Potency was inconclusive: 18.4 µM [activator, single point].
With `CCC(=O)Nc1sc(C(=O)Nc2ccccc2)c(C)c1C(=O)OC` the Potency was active: 20.6 µM.
With `CC(C)(C)N(Cc1ccccc1)C(=O)COC(=O)c1ccc(S(=O)(=O)N2CCOCC2)cc1` the Potency was “inactive”.
For `CCOc1ccccc1CNC(c1ccccc1)c1ccccc1`, the Potency was inconclusive: 16.4 µM [activator, single point].
With `O=C(NCC(c1ccccc1)N1CCCC1)C1CCN(C(=O)Nc2ccccc2)CC1` (stereo unspecified) the Potency was inconclusive: 18.4 µM [activator, single point].
For `CC1=NN=C(c2ccccc2)C(c2c[nH]c3ccccc23)N1O` (stereo unspecified), the Potency was inconclusive: 29.1 µM [activator, single point].
For `O=C(CSc1n[nH]c(-c2ccccn2)n1)Nc1cccc(Cl)c1`, the Potency was inconclusive: 4.61 µM [activator, single point].
In the case of `COC(=O)[C@@]1(Cc2ccc(F)cc2)[C@H]2c3cc(C(=O)N4CCCC4)n(CCc4ccccn4)c3C[C@H]2CN1C(=O)c1ccccc1`, the Potency is reported as inconclusive: 18.4 µM [activator, partial curve, poor fit].
In the case of `O=C(COC(=O)c1ncc(Cl)c(Cl)c1Cl)c1ccc(Cl)s1`, the Potency is reported as inconclusive: 2.91 µM [activator, partial curve].
With `CCC(C(=O)OCC(=O)Nc1cc(Cl)ccc1Cl)c1ccccc1` (stereo unspecified) the Potency was inconclusive: 0.0058 µM [activator, full curve, poor fit].
With `CC(=O)NC(=S)Nc1ccc([N+](=O)[O-])cc1C` the Potency was inconclusive: 18.4 µM [activator, single point].
In the case of `CCOC(=O)N1CCC(=NNc2nc3ccccc3s2)CC1`, the Potency is reported as inconclusive: 25.9 µM [activator, single point].
For `CC1CCN(C(=O)C2COc3ccccc3O2)CC1` (stereo unspecified), the Potency was “inactive”.
For `COc1ccccc1C(CNC(=O)C(CCSC)NC(=O)c1ccccc1Cl)N1CCCC1` (stereo unspecified), the Potency was inconclusive: 23.1 µM [activator, partial curve, poor fit].
In the case of `CCN1CCN(CCNC(=O)c2ccc(/C=C3/Sc4ccccc4N(Cc4cccc(Cl)c4)C3=O)cc2)CC1`, the Potency is reported as “inactive”.
In the case of `O=C(c1ccc(COc2c(F)c(F)c(F)c(F)c2F)o1)N1CCOCC1`, the Potency is reported as inconclusive: 29.1 µM [activator, single point].
With `CCn1cnc2sc(C(=O)Nc3ccccc3OC)c(C)c2c1=O` the Potency was inconclusive: 0.146 µM [activator, full curve, poor fit].
In the case of `COC(=O)C(NC(C)=O)(Nc1nc2c(C)cc(C)cc2s1)C(F)(F)F` (stereo unspecified), the Potency is reported as inconclusive: 35.5 µM [activator, single point].
In the case of `COc1cccc(NC(=O)C(C)(C)C)c1`, the Potency is reported as “inactive”.
For `COc1ccc(NC(=O)COc2cccc3c2CCN(Cc2cccnc2)C3=O)c(OC)c1`, the Potency was inconclusive: 0.13 µM [activator, full curve, poor fit].
With `C=CCN(c1ccccc1)S(=O)(=O)c1cccc(C(=O)N2CCCC2)c1` the Potency was “inactive”.
In the case of `O=C(COC(=O)c1cccnc1SCC(=O)NCc1ccccc1)NCc1ccccc1`, the Potency is reported as inconclusive: 29.1 µM [activator, single point].
With `O=C(c1cccnc1)N(Cc1ccccc1)c1ccccc1` the Potency was “inactive”.
In the case of `COc1cnc(-c2ccccn2)nc1Sc1c(Cl)cccc1Cl`, the Potency is reported as active: 14.6 µM.
With `CCOc1ccc(CNC(=O)C(C)n2ccc3cc(S(=O)(=O)N4CCCC4)ccc32)cc1` (stereo unspecified) the Potency was “inactive”.
For `Cc1cc(C)n2nc3nc(N4CCCC4)nc(-c4ccccc4)c3c2n1`, the Potency was inconclusive: 29.1 µM [activator, single point].
With `O=C(CCl)Nc1ccc(Oc2cnc3ccccc3n2)cc1` the Potency was inconclusive: 20.6 µM [activator, single point].
In the case of `CCCOc1ccc(-c2nc(C#N)c(N3CCc4ccccc4C3)o2)cc1`, the Potency is reported as “inactive”.
In the case of `CC(Oc1ccc(Cl)cc1Cl)c1nc(-c2ccc(NC(=O)c3ccncc3)cc2)no1` (stereo unspecified), the Potency is reported as inconclusive: 29.1 µM [activator, single point].
For `CC(C)c1ccc(OCC(=O)NNC(=S)NC(=O)C2CC2)cc1`, the Potency was inconclusive: 29.1 µM [activator, single point].
For `CCOC(=O)Cn1cc(C=O)c2ccccc21`, the Potency was “inactive”.
In the case of `CC1(C)C2CCC1(C)C(NC(=O)/C=C/c1ccccc1)C2` (stereo unspecified), the Potency is reported as inconclusive: 20.6 µM [activator, partial curve, poor fit].
In the case of `Cc1cc(C)c2nc(/N=C(\N)NC(=O)Nc3ccccc3)nc(C)c2c1`, the Potency is reported as active: 9.2 µM.
For `Cc1ccc(/C=C2/SC(=S)N(CCCC(=O)Nc3cc([N+](=O)[O-])ccc3O)C2=O)cc1`, the Potency was inconclusive: 6.51 µM [activator, partial curve, poor fit].
In the case of `CCCCN(CC)CCCNC(=S)Nc1ccc2nc(N3CCN(C)CC3)cc(C)c2c1`, the Potency is reported as inconclusive: 29.1 µM [activator, partial curve, poor fit].
For `CCOC(=O)c1cc(C)nc(Sc2ccc(C)cc2)c1C#N`, the Potency was inconclusive: 0.0046 µM [activator, full curve, poor fit].
With `O=C(NCCCn1ccnc1)c1nn2c(C(F)(F)F)cc(-c3ccccc3)nc2c1Cl` the Potency was active: 6.51 µM.
In the case of `Cc1ccc(S(=O)(=O)NNC(=O)C(=O)NNS(=O)(=O)c2ccc(C)cc2)cc1`, the Potency is reported as “inactive”.
With `C(=N\Nc1nc(N2CCCC2)nc(N2CCCC2)n1)/c1ccccc1OCc1ccccc1` the Potency was inconclusive: 11.6 µM [activator, partial curve, poor fit].
For `Cc1[nH]c2ccccc2c(=O)c1C(=O)/C=C/c1ccccc1`, the Potency was inconclusive: 2.06 µM [activator, partial curve, poor fit].
For `Cc1[nH]c2ccccc2c1/C=C/c1nc2ccccc2c(=O)n1CCO`, the Potency was inconclusive: 29.1 µM [activator, single point].
In the case of `COc1ccc(NC(=O)CC2C(=O)N(c3ccc(Cl)cc3)C(=S)N2CCc2ccncc2)cc1` (stereo unspecified), the Potency is reported as inconclusive: 18.4 µM [activator, single point].
For `Cc1ccc(NC(=O)c2cccc(OCc3c(C)noc3C)c2)c(C)c1`, the Potency was “inactive”.
In the case of `Cc1cccc(CN2CCCC(C(=O)Nc3ccc(-c4cscn4)cc3)C2)c1` (stereo unspecified), the Potency is reported as inconclusive: 18.4 µM [activator, single point].
With `COc1ccc2c(c1)NC(=O)CC(c1ccccc1)=N2` the Potency was inconclusive: 5.17 µM [activator, full curve].
With `CN1CC(=O)N/C1=N\C(=O)Nc1ccc2c(c1)N(C)C(=O)CS2` the Potency was inconclusive: 29.1 µM [activator, partial curve, poor fit].
With `O=C(O)c1cc(O)ccc1NC(=O)c1cccc2ccccc12` the Potency was inconclusive: 16.4 µM [activator, single point].
With `CSc1nnc(-c2sccc2OCc2ccccc2)n1C` the Potency was “inactive”.
In the case of `Cc1cccc(-n2ncc3c2CCCC3NC(=O)C2(C(N)=O)CC2)c1C` (stereo unspecified), the Potency is reported as “inactive”.
With `COc1ccc(C(=O)NCCn2cc(SCC(=O)NCc3ccco3)c3ccccc32)cc1` the Potency was inconclusive: 29.1 µM [activator, single point].
In the case of `CCOC(=O)c1c(-c2ccc(-c3ccccc3)cc2)csc1NC(=O)C1C2CCC(O2)C1C(=O)O` (stereo unspecified), the Potency is reported as “inactive”.
For `OC[C@H](O)[C@H](O)[C@@H](O)[C@@H](O)[C@@H]1SC(c2ccccc2)=NN1c1ccccc1`, the Potency was inconclusive: 20.6 µM [activator, single point].
For `CC(=O)N1CCN(c2nnc(-c3ccccc3)c3ccccc23)CC1`, the Potency was inconclusive: 0.366 µM [activator, full curve, poor fit].
For `CCN(CC)C(=O)c1cccc(NC(=O)c2ccc3c(=O)n4c(nc3c2)CCC4)c1`, the Potency was inconclusive: 29.1 µM [activator, partial curve, poor fit].
With `CCN(CC)c1ccc2c(C)cc(=O)oc2c1` the Potency was inconclusive: 16.4 µM [activator, single point].
In the case of `NNC(=O)c1csc(-c2ncc(C(F)(F)F)cc2Cl)n1`, the Potency is reported as “inactive”.
In the case of `C[C@@H]1CCC(=O)N(CC[C@H](Sc2ccc(Br)cc2)c2ccccc2)CC1`, the Potency is reported as “inactive”.
In the case of `CCOC(=O)c1oc2ccc(CNC3CCCCC3)c(Cl)c2c1C`, the Potency is reported as inconclusive: 18.4 µM [activator, single point].
With `CCOC(=O)c1c(CN2CCCCC2)n(C)c2cc(Br)c(O)cc12` the Potency was “inactive”.
With `CC(C)CCNC(=S)Nc1ccc([N+](=O)[O-])cc1` the Potency was inconclusive: 32.6 µM [activator, partial curve, poor fit].
With `CN(C)CC(CCC(CN(C)C)C(O)(c1ccccc1)c1ccccc1)C(O)(c1ccccc1)c1ccccc1` (stereo unspecified) the Potency was inconclusive: 12.6 µM [activator, partial curve, poor fit].
In the case of `COCCCN1C(=O)c2[nH]nc(-c3cc(C)cc(C)c3O)c2C1c1ccc(O)c(OC)c1` (stereo unspecified), the Potency is reported as inconclusive: 20.6 µM [activator, partial curve, poor fit].
In the case of `CCSc1nnc(NC(=O)c2nc(S(=O)(=O)Cc3ccc(F)cc3)ncc2Cl)s1`, the Potency is reported as inconclusive: 1.3 µM [activator, full curve, poor fit].
In the case of `CCN1C(=O)[C@H]2[C@@H](c3ccc(-c4cccc(Cl)c4)c(OC)c3)N3CCC[C@@]3(C(=O)OC)[C@H]2C1=O`, the Potency is reported as inconclusive: 23.1 µM [activator, partial curve, poor fit].
With `COCCN(CC(=O)Oc1ccccc1P(=O)(OC)OC)Cc1ccccc1` the Potency was inconclusive: 23.1 µM [activator, single point].
With `CN(C)CC1CCC/C(=C\c2ccc(OC(=O)c3ccc(Cl)cc3)cc2)C1=O` (stereo unspecified) the Potency was inconclusive: 1.3 µM [activator, full curve, poor fit].
